# According to article PMC12040169 (PLOS Biology, 2025):
# This is one part of the list.
# Test system: T1, CTL2-GFP (C. trachomatis L2/434/Bu, GFP-expressing)
# T1 construct: L2/434/Bu, GFP-expressing
# Parameters: species or system HeLa; Intracellular C. trachomatis growth in HeLa cells, bulk GFP fluorescence relative to DMSO
# Settings: bulk GFP, single well; 28.5 h, 10 µM; inhibitor
row,Structure (SMILES),% of control remaining [%]
1,Brc1cn2c(-c3ccccc3)cnc2c(N2CCCC2)n1 [CBK091488],91.9518
2,N#Cc1nc(/C=C/c2cccs2)oc1NCCCn1ccnc1 [CBK269455],124.884
3,N#Cc1ccccc1CSc1nc(N)cc(O)n1 [CBK267967],130.535
4,Cc1cc(NC(=O)CN2CCN(c3ccc(F)cc3)CC2)nc2c1c(=O)oc1ccccc12 [CBK291232],132.24
5,Cc1ccccc1OCCn1c(=N)n(CC(C)C)c2ccccc21 [CBK265392B],103.577
6,CC(=O)Nc1cccc(NC(=O)c2cc(-c3ccccc3)nn2-c2ccccc2)c1 [CBK296997],137.552
7,CCOC(=O)N1CCC(NS(=O)(=O)c2cc(Br)c(Cl)s2)CC1 [CBK045472],127.657
8,COc1cc(CNCC2CCCO2)cc(Cl)c1OCC(N)=O (centres unmarked) [CBK270238C],128.803
9,CN1CC=C(/C=C/c2c[nH]c3ccccc23)CC1 [CBK283602],161.128
10,CCc1nn(CC(=O)N(CC)CC)c(=O)c2cc3oc(C)cc3n12 [CBK283583],130.2
11,O=C(O)CSCC(=O)Nc1ccc(Cl)cn1 [CBK057543],136.371
12,COC(=O)[C@@H](C)NC(=O)[C@@H]1CN(C(=O)c2cccc(F)c2)CCN1C(C)=O [CBK289620],106.15
13,Cc1ccc2c(c1)nc1n2CCC1O (centres unmarked) [CBK113622],103.254
14,CC1CC(Nc2ccccc2)c2ccccc2N1 (centres unmarked) [CBK057947],121.641
15,O=C(c1cccnc1)C1CCN(C(=O)C2CCCC2)CC1 [CBK283508],131.797
16,CCOc1ccc2nc(NS(=O)(=O)c3ccc4c5c(cccc35)C(=O)N4)sc2c1 [CBK262162],88.1408
17,Cn1nc(C2CCCC2)cc1[C@H]1CN2CC[C@H]1C[C@@H]2CNC(=O)N1CCOCC1 [CBK288740],126.153
18,CC(C)(C)C(=O)N1CCC(C(=O)NC(c2ccc3c(c2)OCO3)c2ccccn2)CC1 (centres unmarked) [CBK060074],93.9996
19,CS(=O)(=O)c1ccc(-n2ncc(-c3ccc(C(F)(F)F)cc3)n2)cc1 [CBK112698],81.9225
20,CC(Oc1cccc2ccccc12)C(=O)N/N=C/c1ccc(Cl)cc1Cl (centres unmarked) [CBK262218],103.023
21,CC(C)=C(NC(=O)c1ccccc1)C(=O)Nc1cccc(C(=O)O)c1 [CBK058180],111.548
22,CCCC1NCCn2cccc21 (centres unmarked) [CBK007074F],132.529
23,CN1CCN(c2ccc(NC(=O)c3ccc([N+](=O)[O-])o3)cc2)CC1 [CBK269727],55.476
24,COc1cccc(Oc2nccnc2-c2ccc(F)cc2)c1 [CBK106897],102.198
25,CC(C)c1c(SCCN)[nH]c2ccccc12 [CBK017265C],93.3203

row,Structure (SMILES),% of control remaining [%]
1,O=C(O)c1ccc(NC(=O)c2ccc(S(=O)(=O)N3CCCCC3)cc2)cc1 [CBK267813],115.915
2,COc1cncc(-c2cc(NCc3cc(OC)c(OC)c(OC)c3)ncn2)c1 [CBK091183],98.3561
3,Cc1ccc2c(c1)C(C)(c1ccccc1)CC(C)(C)N2C(=O)CSc1nncn1C (centres unmarked) [CBK022397],78.9696
4,COc1ccc(C(=O)N2CCC3(CCN(Cc4cccc(C#N)c4)C3)C2)cc1OC (centres unmarked) [CBK132153],120.764
5,Cc1c(C(=O)N(CC(=O)O)C2CC2)nnn1-c1ccc(Cl)cc1F [CBK304738],97.4198
6,Clc1ccc(-c2nn3c4cc(N5CCNCC5)ccc4nc3c3ccccc23)cc1 [CBK268319],133.382
7,O=C(O)c1cccc(Nc2ncnc3ccccc23)c1 [CBK073042],104.333
8,Cc1cc(NC(c2cccc([N+](=O)[O-])c2)c2ccc3cccnc3c2O)no1 (centres unmarked) [CBK296083],156.04
9,COc1ccc([N+](=O)[O-])cc1Nc1nc(-c2ccccc2)nc2ccccc12 [CBK265913],100
10,C[C@]12CN(Cc3cccs3)C[C@H]1NC(=O)c1ccccc1C2=O [CBK284702],167.948
11,Cc1cc(I)ccc1NC(=O)CN(c1ccccc1)S(=O)(=O)c1ccccc1[N+](=O)[O-] [CBK265954],67.9738
12,COCCNC(=O)c1cc(-c2cc(C)oc2C)nc2c1cnn2C(C)C [CBK305052],134.336
13,COc1ccc(C(=O)N(C)Cc2cnn(C)c2)cc1Br [CBK305149],115.972
14,CC(C)(C)OC(=O)N1CCCC(C(=O)NC(CO)Cc2ccccn2)C1 (centres unmarked) [CBK305458],119.324
15,Clc1cc2nc(SCCc3cnccn3)c(N3CCCC3)nc2cc1Cl [CBK103700],118.611
16,O=C(O)c1c(NS(=O)(=O)Cc2ccccc2[N+](=O)[O-])sc2c1CCCC2 [CBK024819],129.112
17,CC(=O)N[C@@H](C(=O)N1CC[C@@H]2NC(=O)[C@@H](Cc3ccccc3)NC(=O)C3(C/C=C/C[C@H]2C1)CCOCC3)C(C)C [CBK292198],104.949
18,COc1ccc([C@@]23CC[C@@H](NC(=O)Nc4c(F)cc(F)cc4Cl)C[C@@H]2N(C)CC3)cc1OC [CBK073740T],88.3424
19,O=C(CSCCO)Nc1ccc(N2CCOCC2)cc1 [CBK269616],166.188
20,Cc1ccc(C(=O)N2CCC(CO)CC2)cc1C [CBK083532],112.461
21,COCCn1c(SC(C)C(=O)OC)nc2ccc(Br)cc2c1=O (centres unmarked) [CBK306479],111.724
22,CCc1ccc(CNC(=O)NC2CCCc3c2cnn3CCO)s1 (centres unmarked) [CBK305747],128.302
23,Cc1ccc(-c2cc(O)n(-c3nc(C)cc(C)n3)n2)cc1 [CBK270165],133.141
24,COC(=O)c1sccc1NC(=O)COc1ccc([N+](=O)[O-])cc1Cl [CBK066828],102.418
25,COc1nn(CC(=O)NC2(C)CCC2)c(=O)c2ccccc12 [CBK281603],129.059

# 13 entries out of the list, sorted by count of non-hydrogen atoms, smallest number first:
row,Structure (SMILES),% of control remaining [%]
20,Cc1ccc(C(=O)N2CCC(CO)CC2)cc1C [CBK083532],112.461
7,O=C(O)c1cccc(Nc2ncnc3ccccc23)c1 [CBK073042],104.333
23,Cc1ccc(-c2cc(O)n(-c3nc(C)cc(C)n3)n2)cc1 [CBK270165],133.141
25,COc1nn(CC(=O)NC2(C)CCC2)c(=O)c2ccccc12 [CBK281603],129.059
10,C[C@]12CN(Cc3cccs3)C[C@H]1NC(=O)c1ccccc1C2=O [CBK284702],167.948
5,Cc1c(C(=O)N(CC(=O)O)C2CC2)nnn1-c1ccc(Cl)cc1F [CBK304738],97.4198
14,CC(C)(C)OC(=O)N1CCCC(C(=O)NC(CO)Cc2ccccn2)C1 (centres unmarked) [CBK305458],119.324
1,O=C(O)c1ccc(NC(=O)c2ccc(S(=O)(=O)N3CCCCC3)cc2)cc1 [CBK267813],115.915
8,Cc1cc(NC(c2cccc([N+](=O)[O-])c2)c2ccc3cccnc3c2O)no1 (centres unmarked) [CBK296083],156.04
4,COc1ccc(C(=O)N2CCC3(CCN(Cc4cccc(C#N)c4)C3)C2)cc1OC (centres unmarked) [CBK132153],120.764
11,Cc1cc(I)ccc1NC(=O)CN(c1ccccc1)S(=O)(=O)c1ccccc1[N+](=O)[O-] [CBK265954],67.9738
18,COc1ccc([C@@]23CC[C@@H](NC(=O)Nc4c(F)cc(F)cc4Cl)C[C@@H]2N(C)CC3)cc1OC [CBK073740T],88.3424
17,CC(=O)N[C@@H](C(=O)N1CC[C@@H]2NC(=O)[C@@H](Cc3ccccc3)NC(=O)C3(C/C=C/C[C@H]2C1)CCOCC3)C(C)C [CBK292198],104.949
